# Experimental data taken from doi:10.1101/2023.05.12.540614.
# Amino acid sequences for entries named in this document (tags omitted).
# UniProt Q04206: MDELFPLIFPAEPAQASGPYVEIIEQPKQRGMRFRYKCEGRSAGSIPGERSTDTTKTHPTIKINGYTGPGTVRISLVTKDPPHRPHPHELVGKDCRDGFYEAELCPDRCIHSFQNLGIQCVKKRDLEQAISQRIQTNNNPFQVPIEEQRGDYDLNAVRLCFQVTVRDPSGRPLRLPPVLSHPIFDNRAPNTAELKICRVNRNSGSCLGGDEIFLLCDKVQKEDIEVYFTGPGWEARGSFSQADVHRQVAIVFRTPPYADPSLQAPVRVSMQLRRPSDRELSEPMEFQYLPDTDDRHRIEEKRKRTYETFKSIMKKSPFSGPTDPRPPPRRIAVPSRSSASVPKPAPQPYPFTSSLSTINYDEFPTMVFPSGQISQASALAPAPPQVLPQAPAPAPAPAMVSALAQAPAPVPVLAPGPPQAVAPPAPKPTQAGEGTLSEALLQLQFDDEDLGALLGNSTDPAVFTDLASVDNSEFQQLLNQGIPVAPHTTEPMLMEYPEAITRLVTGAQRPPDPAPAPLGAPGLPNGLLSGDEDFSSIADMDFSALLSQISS
# No constants are given. Whether binding was seen depends on the method and setting. In cells and extracts the contact can be indirect. Some results given as binding are weak or reduced against the parent protein; the word gives no strength.
# Molecular target: T1, TERF2IP (human (endogenous in HUVEC)) (UniProt Q9NYB0)
# T1 sequence: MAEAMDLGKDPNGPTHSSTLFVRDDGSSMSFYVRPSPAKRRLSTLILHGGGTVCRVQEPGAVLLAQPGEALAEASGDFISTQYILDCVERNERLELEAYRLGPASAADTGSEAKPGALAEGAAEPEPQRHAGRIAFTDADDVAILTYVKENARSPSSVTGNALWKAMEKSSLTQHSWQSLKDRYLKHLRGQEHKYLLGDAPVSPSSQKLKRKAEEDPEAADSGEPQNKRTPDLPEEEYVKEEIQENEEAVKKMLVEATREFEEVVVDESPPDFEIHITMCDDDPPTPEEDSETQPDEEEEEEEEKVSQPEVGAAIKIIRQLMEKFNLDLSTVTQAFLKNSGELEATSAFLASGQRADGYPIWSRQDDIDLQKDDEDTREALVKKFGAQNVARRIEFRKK
# Test: co-IP
substance,measurement,value
p65 subunit of NF-κB (from UniProt Q04206 1-551),binding,binds
